Reference: publication PMC8392593
No constants are given. Whether binding was seen depends on the method and setting. Some entries that bind do so weakly or less than the wild type. Sequences can lack the tags named with a protein.

Biological target: MuRF1 in fusion with the binding domain of GAL4 (pBridge, MCS I) (rat) (UniProt Q91Z63)
Assay: two-hybrid; Matchmaker Gold yeast two-hybrid; MuRF1 alone as GAL4 binding-domain fusion, preys in pGADT7; growth of diploid clones on -LTH + Aureobasidin A + 3-AT followed over 21 days

binding: binds
B1: MuRF3 in pGADT7 (GAL4 activation domain fusion) (enzyme, UniProt Q9ERP3 1-366)
chain: MNFTVGFKPLLGDAHNMDNLEKQLICPICLEMFSKPVVILPCQHNLCRKCANDVFQASNPLWQSRGSTTVSSGGRFRCPSCRHEVVLDRHGVYGLQRNLLVENIIDIYKQESSRPLHAKAEQHLMCEEHEDEKINIYCLSCEVPTCSLCKVFGAHKDCEVAPLPTIYKRQKSELSDGIAMLVAGNDRVQAVITQMEEVCQTIEDNSRRQKQLLNQRFETLCAVLEERKGELLQALAREQEEKLQRVRGLIRQYGDHLEGSSKLVESAIQSMEEPQMALYLQQAKELINKVGAMSKVELAGRPEPGYESMEQFSVSVEHVAEMLRTIDFQPGAAGDEEDDDMALDGEEGNAGLEEERLDVPEGSGLH
